Taken from: PubChem BioAssay AID1508597 (Cure First, 2020)
Test: 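Knock-downs altering ovarian cancer cell survival with or without PARP inhibitor rucaparib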 (primary screen). System: human ovarian carcinoma lines grown from tumours: OCI-P5x (papillary serous) and OCI-C5x (clear cell). Knock-down reagent: siRNA pool against human genes, 1.25 pmol siRNA per well. Time to read-out: 72 h or 96 h, depending on the cell culture. Challenge: rucaparib 20 µM (about IC30) or vehicle, present until read-out. Rucaparib or vehicle: Rucaparib. Cell line: OCI-P5x (serous). Measurement: 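Luminescent ATP-based viability assay read 72 or 96 h after transfection, depending on culture, given as normalised percent viability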. Reading the numbers: viability, normalised: higher = more viable cells remaining. Rule for the call: 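a well counts as a hit if its normalised viability is under 80 percent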. Calls: active = viability under 80%; inactive = viability 80% or more.
This is a random part of the about 2,100 reagents, under one of the conditions tested. 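Calls flag viability under 80% in either arm, not effects specific to rucaparib; the reference for percent is not stated.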 Entries without a mark were called inactive. Some reagents were tested in more than one well and are listed for each. The record does not give: the 100% reference.

target	technical replicate	viability, normalised (%)
NIPBL (GeneID 25836)	1	54 (active)
NIPBL (GeneID 25836)	2	58.7 (active)
NIPBL (GeneID 25836)	3	61.3 (active)
BRWD1 (GeneID 54014)	1	72.6 (active)
BRWD1 (GeneID 54014)	2	88.2
BRWD1 (GeneID 54014)	3	86.3
NBN (GeneID 4683)	1	43.9 (active)
NBN (GeneID 4683)	1	105
NBN (GeneID 4683)	2	34.5 (active)
NBN (GeneID 4683)	2	81.2
NBN (GeneID 4683)	3	65.3 (active)
NBN (GeneID 4683)	3	39.7 (active)
TGFB2 (GeneID 7042)	1	75.1 (active)
TGFB2 (GeneID 7042)	1	74.4 (active)
TGFB2 (GeneID 7042)	2	71.8 (active)
TGFB2 (GeneID 7042)	2	81.1
TGFB2 (GeneID 7042)	3	68.4 (active)
TGFB2 (GeneID 7042)	3	75.7 (active)
ASF1B (GeneID 55723)	1	60.6 (active)
ASF1B (GeneID 55723)	2	72.8 (active)
ASF1B (GeneID 55723)	3	58.4 (active)
HDAC2 (GeneID 3066)	1	50.8 (active)
HDAC2 (GeneID 3066)	1	88.7
HDAC2 (GeneID 3066)	2	82.9
HDAC2 (GeneID 3066)	2	43.7 (active)
HDAC2 (GeneID 3066)	3	54.3 (active)
HDAC2 (GeneID 3066)	3	75.2 (active)
BRPF3 (GeneID 27154)	1	80.2
BRPF3 (GeneID 27154)	2	75.3 (active)
BRPF3 (GeneID 27154)	3	103
CSNK1G2 (GeneID 1455)	1	91.2
CSNK1G2 (GeneID 1455)	2	93.8
CSNK1G2 (GeneID 1455)	3	90.9
MARVELD3 (GeneID 91862)	1	101
MARVELD3 (GeneID 91862)	2	74.8 (active)
MARVELD3 (GeneID 91862)	3	77.1 (active)
TCF19 (GeneID 6941)	1	45.6 (active)
TCF19 (GeneID 6941)	2	55.4 (active)
TCF19 (GeneID 6941)	3	61.5 (active)
CD40LG (GeneID 959)	1	113
CD40LG (GeneID 959)	2	97
CD40LG (GeneID 959)	3	94.3
SMC1B (GeneID 27127)	1	49.6 (active)
SMC1B (GeneID 27127)	2	46.3 (active)
SMC1B (GeneID 27127)	3	39.3 (active)
NPM2 (GeneID 10361)	1	51.6 (active)
NPM2 (GeneID 10361)	2	62 (active)
NPM2 (GeneID 10361)	3	70.8 (active)
SMNDC1 (GeneID 10285)	1	61.9 (active)
SMNDC1 (GeneID 10285)	2	63.8 (active)
SMNDC1 (GeneID 10285)	3	55.1 (active)
NDRG1 (GeneID 10397)	1	69.4 (active)
NDRG1 (GeneID 10397)	2	52.9 (active)
NDRG1 (GeneID 10397)	3	70 (active)
RBL1 (GeneID 5933)	1	23.2 (active)
RBL1 (GeneID 5933)	2	32.4 (active)
RBL1 (GeneID 5933)	3	38.5 (active)
RPS6KA5 (GeneID 9252)	1	91.4
RPS6KA5 (GeneID 9252)	2	101
RPS6KA5 (GeneID 9252)	3	70 (active)
NAP1L5 (GeneID 266812)	1	49.2 (active)
NAP1L5 (GeneID 266812)	2	50.2 (active)
NAP1L5 (GeneID 266812)	3	55.1 (active)
SSRP1 (GeneID 6749)	1	88.9
SSRP1 (GeneID 6749)	1	32.2 (active)
SSRP1 (GeneID 6749)	2	44.2 (active)
SSRP1 (GeneID 6749)	2	61.2 (active)
SSRP1 (GeneID 6749)	3	76 (active)
SSRP1 (GeneID 6749)	3	37.9 (active)
IRAK3 (GeneID 11213)	1	93
IRAK3 (GeneID 11213)	2	96
IRAK3 (GeneID 11213)	3	96.1
MRI1 (GeneID 84245)	1	102
MRI1 (GeneID 84245)	2	93.7
MRI1 (GeneID 84245)	3	92.3

8 of these entries, reformatted.
target | technical replicate | viability, normalised (%)
NDRG1 (GeneID 10397) | 2 | 52.9 (active)
NDRG1 (GeneID 10397) | 3 | 70 (active)
RBL1 (GeneID 5933) | 1 | 23.2 (active)
RBL1 (GeneID 5933) | 2 | 32.4 (active)
RBL1 (GeneID 5933) | 3 | 38.5 (active)
RPS6KA5 (GeneID 9252) | 1 | 91.4
RPS6KA5 (GeneID 9252) | 2 | 101
RPS6KA5 (GeneID 9252) | 3 | 70 (active)
